Source: patent US6403765B1, “Truncated Apaf-1 and methods of use thereof” (Thomas Jefferson University, priority 1998, dated 2002)
Results are given in words; binding and its absence hold for the method and conditions named. In cells and extracts the contact can be indirect. Some binding calls cover weakened binding; strength is not graded here.

By UniProt entry, the sequences of proteins in these tests, tags left out. Where a name states a change or a piece, a line headed by the entry shows the natural chain unless it says otherwise.
UniProt O14727: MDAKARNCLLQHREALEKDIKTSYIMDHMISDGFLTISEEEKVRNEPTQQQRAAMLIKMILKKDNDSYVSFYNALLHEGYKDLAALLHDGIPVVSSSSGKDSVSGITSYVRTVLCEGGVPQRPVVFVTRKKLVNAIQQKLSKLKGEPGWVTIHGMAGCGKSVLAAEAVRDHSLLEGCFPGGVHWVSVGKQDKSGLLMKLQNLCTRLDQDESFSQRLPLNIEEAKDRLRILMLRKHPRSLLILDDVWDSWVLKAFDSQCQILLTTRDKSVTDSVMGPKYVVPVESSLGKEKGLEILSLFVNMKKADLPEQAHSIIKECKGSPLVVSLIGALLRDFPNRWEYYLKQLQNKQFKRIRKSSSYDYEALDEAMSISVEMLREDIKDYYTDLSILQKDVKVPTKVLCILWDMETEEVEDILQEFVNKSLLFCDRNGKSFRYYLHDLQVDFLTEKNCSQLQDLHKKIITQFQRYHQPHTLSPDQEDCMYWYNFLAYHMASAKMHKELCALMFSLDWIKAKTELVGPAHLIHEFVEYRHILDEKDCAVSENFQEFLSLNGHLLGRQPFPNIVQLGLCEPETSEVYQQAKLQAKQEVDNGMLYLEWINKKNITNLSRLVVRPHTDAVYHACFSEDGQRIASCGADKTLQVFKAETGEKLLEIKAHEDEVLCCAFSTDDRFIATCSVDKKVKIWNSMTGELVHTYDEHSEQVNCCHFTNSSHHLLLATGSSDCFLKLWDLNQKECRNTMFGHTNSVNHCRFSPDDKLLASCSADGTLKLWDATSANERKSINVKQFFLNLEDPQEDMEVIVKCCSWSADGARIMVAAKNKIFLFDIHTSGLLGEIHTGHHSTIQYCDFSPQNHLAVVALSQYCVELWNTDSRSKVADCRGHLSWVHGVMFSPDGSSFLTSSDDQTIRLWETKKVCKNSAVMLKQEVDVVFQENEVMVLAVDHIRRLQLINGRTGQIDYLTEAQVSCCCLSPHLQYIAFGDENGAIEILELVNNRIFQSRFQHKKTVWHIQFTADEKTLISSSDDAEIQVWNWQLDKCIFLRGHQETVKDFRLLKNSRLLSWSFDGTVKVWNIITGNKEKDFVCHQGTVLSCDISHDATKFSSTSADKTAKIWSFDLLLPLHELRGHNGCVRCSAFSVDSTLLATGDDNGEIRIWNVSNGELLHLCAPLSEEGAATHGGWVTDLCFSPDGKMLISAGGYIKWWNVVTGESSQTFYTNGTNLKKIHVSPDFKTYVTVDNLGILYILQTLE
UniProt Q07817: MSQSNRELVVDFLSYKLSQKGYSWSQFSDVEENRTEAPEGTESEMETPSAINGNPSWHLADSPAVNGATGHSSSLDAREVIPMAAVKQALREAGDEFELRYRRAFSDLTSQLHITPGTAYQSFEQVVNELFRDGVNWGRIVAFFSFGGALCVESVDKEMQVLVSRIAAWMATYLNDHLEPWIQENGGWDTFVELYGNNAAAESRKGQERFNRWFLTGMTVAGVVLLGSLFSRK

Key:
Assay in all cases: co-immunoprecipitation from co-transfected 293 cells: anti-Flag IP, anti-T7 immunoblot
[1] = biological target: Flag-tagged Apaf-530ΔCARD (human) (UniProt O14727)
[2] = biological target: Flag-tagged Apaf-530 (human) (UniProt O14727)
[3] = biological target: Flag-tagged Apaf-1 (full length) (human) (UniProt O14727)
T7-tagged Bcl-xL = biological target: T1, T7-tagged Bcl-xL (UniProt Q07817 1-233)
T1 construct: Expressed in co-transfected 293 cells
Method: The immunoprecipitates were analyzed by Western blotting with an anti-T7 antibody.
After 36 hours, extracts were prepared and immunoprecipitated with a monoclonal antibody to the Flag epitope. The immunoprecipitates (upper panel) were analyzed by SDS-PAGE and immunoblotted with a horseradish peroxides-conjugated T7 antibody.
In vivo interaction experiments between Apaf-1 variants and Bcl-x_L were performed. […] After 36 hours, extracts were prepared and immunoprecipitated with a monoclonal antibody to the Flag epitope. The immunoprecipitates (FIG. 16, upper panel) were analyzed by SDS-PAGE and immunoblotted with a horseradish peroxidase-conjugated T7 antibody.

Substance | binding [1] | binding [2] | binding [3] | binding (T7-tagged Bcl-xL)
T7-tagged Apaf-530 (from UniProt O14727 1-541) | binds | binds | binds | 
Flag-tagged Apaf-530 (from UniProt O14727 1-541) |  |  |  | binds
Flag-tagged Apaf-1 (full length) (from UniProt O14727 1-1248) |  |  |  | binds
Flag-tagged Apaf-530ΔCARD (from UniProt O14727 110-541) |  |  |  | binds
